Source: the supplement of paper PMC8007513
The other results are listed elsewhere or left out. Single values are uncertain, as repeats are few or missing.

Tested on: Saccharomyces cerevisiae BY4743
Assay: growth (OD600) with compound + IPBC relative to untreated control; higher = less growth inhibition
Conditions: compound concentration: 133 uM; IPBC concentration: 0.5 ug/ml; 20 h
Procedure: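 NMCCC compounds (133 uM) combined with IPBC (0.5 ug/ml) against Saccharomyces cerevisiae BY4743 in YPD, 96-well plates. Growth was read as OD600 at 20 h and expressed as % of the untreated control. Single pass.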

Structure (SMILES) | growth
CC(C)(C)c1cc(NC(=O)CSc2nnc(NCCc3cccs3)s2)on1 + CCCCNC(=O)OCC#CI [3-iodo-2-propynyl butylcarbamate (IPBC)] | 82.8%
Cc1ccccc1S(=O)(=O)Nc1ncc(C(F)(F)F)cc1Cl + CCCCNC(=O)OCC#CI [3-iodo-2-propynyl butylcarbamate (IPBC)] | 106%
O=S(=O)(NC1CCCCCC1)c1ccc(-c2ccno2)s1 + CCCCNC(=O)OCC#CI [3-iodo-2-propynyl butylcarbamate (IPBC)] | 80.2%
COc1ccc(-n2cc(C#N)c3cccnc32)cc1 + CCCCNC(=O)OCC#CI [3-iodo-2-propynyl butylcarbamate (IPBC)] | 73%
COc1cc(C(=O)Nc2ccccc2OCC2CCCO2)cc(OC)c1OC (stereo not drawn) + CCCCNC(=O)OCC#CI [3-iodo-2-propynyl butylcarbamate (IPBC)] | 101%
CCOC(=O)c1c(C)n(C)c2ccc(O)c(S(=O)(=O)c3ccc(OC)cc3)c12 + CCCCNC(=O)OCC#CI [3-iodo-2-propynyl butylcarbamate (IPBC)] | 89.1%
CCCN(CCC)C(=O)c1oc2ccccc2c1NC(=O)c1ccco1 + CCCCNC(=O)OCC#CI [3-iodo-2-propynyl butylcarbamate (IPBC)] | 94%
N#Cc1cccnc1NCc1ccc(Cn2cncn2)cc1 + CCCCNC(=O)OCC#CI [3-iodo-2-propynyl butylcarbamate (IPBC)] | 92.8%

Part of the list above, in markdown.

| Structure (SMILES) | growth |
| --- | --- |
| CC(C)(C)c1cc(NC(=O)CSc2nnc(NCCc3cccs3)s2)on1 + CCCCNC(=O)OCC#CI [3-iodo-2-propynyl butylcarbamate (IPBC)] | 82.8% |
| Cc1ccccc1S(=O)(=O)Nc1ncc(C(F)(F)F)cc1Cl + CCCCNC(=O)OCC#CI [3-iodo-2-propynyl butylcarbamate (IPBC)] | 106% |
